The campaign covered roughly 53,000 sequences. About 3,700 (7%) were called active.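 Rule for the calls: active = gene knockdowns whose robust z-score for IL-1 alpha signal is at least 2 or at most -2, so actives lie on both sides; inactive = the rest.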 Some of the results follow.

A short description of the assay: Components of the Cytosolic LPS Sensing Pathway: Gene Identification via Genome-wide siRNA Screen.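 Note: robust z of the log signal after scaling to non-targeting control siRNA wells of the plate.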 The note with it: RAW264.7 macrophages, IL-1a HTRF, actives lie on both sides, screened at 100 nM (by protocol), cells primed 5 h with Pam3CSK4 first. In outline:
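RAW264.7 mouse macrophages reverse-transfected with single siRNAs (100 nM final) for 48h, primed with Pam3CSK4 for 5 hours, then transfected with LipidA for 24 hour. Supernatant IL-1a read by HTRF; values normalized to negative-control median, log-transformed robust z-scores.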
On to “GCUCACCUUUCUUGAGAAATT against 4930579C12Rik”, for which the z-score is inactive: -0.179.
Next, GGAUGAGAAGGAGAAAUACTT against Mael: inactive: -0.16; GCUGUAUGGGAAGGGUUACTT against Tsen2: inactive: 0.829.
Consider GGAUAUCACUUGCUAUUCCTT against Abraxas2, for which the z-score was inactive: -0.406.
For “GGACCUUACUCAUCUAGCATT against D630004N19Rik” the value was inactive: 1.78; for GGACUUGGAAUAUGGACCATT against Mecom, inactive: -0.804; for GGGAAAGCCAUAUUUUUUATT against Galr1, inactive: 0.839.
GCAUAUGGAGCAACUUGCUTT against Dsg1c: the z-score was inactive: -1.17.
Consider CAAUAGAGACUAGCCUCAUTT against Olfr160, for which the z-score is inactive: 0.709.
For GGAUUUUGGGAAUAGAACUTT against Rtp4 the value was inactive: -0.636; for GGUAUUCCAGAGAAAGAUATT against Zfp207, inactive: -1.35; for GCUGAGAUCUUACUAUUAGTT against Olfr1239, inactive: 0.172.
For GGCAUUAAACAAGAAGCUUTT against Epyc the value was inactive: -1.16.
Take GCUGAAUGGAAGGAAGUUGTT against Wdr83os: the z-score is inactive: -1.32.
Next, GCCUCAACCAAUCAUGAAGTT against Dbp: inactive: -0.369; CCUAAUGGUUCAGGAUACGTT against Pcdhb5: inactive: -0.641.
For GGAGCACAUCUUUUCUGCCTT against Mixl1 the value was inactive: -1.22; for GGAAGCAGUCAGCUAACACTT against Baz1b, inactive: -1.64; for GCUAUGAGCUAACAAGUCUTT against Xkr5, inactive: -0.0244.
Take CCAAAUGAAAUUAGUCCUCTT against Eif5: the z-score was inactive: -0.347.
Take CCUUGUAAGUGAGAUCCGATT against Olfr118: the z-score is inactive: 1.38.
As to GGAGUUUUGAAUAACAGCUTT against Ntn3, the z-score is inactive: -0.963.
Consider GGAUCUAGAAAUGGUUAAGTT against Evpl, for which the z-score is inactive: 0.209.
For GGACUUAUGGCAUUAGAAUTT against Nup88 the value was inactive: -1.17.
For GCUUCGACAAAAGAAGAUGTT against Ccdc174 the value was inactive: -0.373; for GGACCCAACCUCAAUGAAATT against Arfip2, inactive: 0.57.
For UGAUUGUCCUUACAAUGGUTT against Olfr1065, the z-score is inactive: -0.0653.
For GGGUCUAUACCAUCCGGGATT against Mdga2 the value was inactive: 0.0197; for CCGCUAGACAAAUUUUGCCTT against Slc6a2, inactive: 1.45.
For GGAGAUACUGAAAGAGGCCTT against C1qtnf12 the value was inactive: -1.25.
For GGUGUGCUGUGUAAGGGAGTT against Inpp5b the value was inactive: 0.952; for GCUCAUUCGAGAGGAGAACTT against Cby2, inactive: 0.636; for GGAAGAAGAUUCCUUACAATT against Spata21, inactive: 1.18.
GGCUAAAUAUGUGAUUAGUTT against Maob: the z-score was inactive: -0.311.
For CCUAUUGCUGCCCUCAAGATT against Irf2bp1 the value was inactive: 0.00965; for GCACAUUCGAUAUGCAACATT against Cops3, inactive: -1.33; for CCUUAAUGGUAAAUCCUCGTT against Vmn1r199, inactive: -0.478.
Next, GGGAACAGCAUCUCUGUCATT against Lypd6: inactive: -0.169; GGUGAGAAGACCAUUGAUUTT against Insr: inactive: 0.459; GGGACAUGAUUUUGAACUUTT against Pfkfb2: inactive: 0.701.
For CCUGUGUUUCAGUUUGGUATT against Clptm1l the value was inactive: 0.549.
As for GCUAGUCUUAUGGACCAGATT against Eaf2, the z-score was inactive: -0.764.
Consider GGGAAUCAUUAACAGCUUGTT against Hectd2, for which the z-score was inactive: 1.08.
For GGGUGAGCGACAGAUGUCATT against Plcz1 the value was inactive: -1.67; for GGUCAAAGUAGGUAAAGAATT against Snx2, inactive: -1.23.
Next, GGAACUUAACUAUUGCACUTT against Hs3st1: inactive: 1.07; “GCGCGAUCACAUUCUUUAGTT against 4921522P10Rik”: inactive: 0.569; GCCUCUCCUAUGUUCAGAGTT against Msl3l2: inactive: 0.836.
Next, GGAACCAUGGACCUUAAUUTT against Rbm4: inactive: 0.291; GGCAGUGCAAGCCUUCAUGTT against Emp1: inactive: 0.816.
Consider GGUGGAAGCACAGAGUUGCTT against Prdm15, for which the z-score is active: 2.14.
For CGGAUACAAUUUCUGACCGTT against Zdhhc23 the value was inactive: -0.163; for GGGCAGAACGCAUCUUGCATT against Gpt, inactive: -1.93.
Next, GGGCUGAUGCUUAAACAAATT against Vmn1r72: active: -2.19; GGAUGCAUUUUUUCUGGAATT against Nop53: inactive: 0.85; GGAUGCACAUUCCUCUACATT against Clca2: inactive: 0.0784.
GGUAUGCACUCACACCAGATT against Mus81: the z-score is inactive: 0.73.
“GGUGAUUGAAGUUUGUGAGTT against D230025D16Rik”: the z-score is inactive: 0.506.
For “GGAACCAAUCGGGAUUUUGTT against B330016D10Rik” the value was inactive: 0.179.
As to GGGUGAAAGACAGAGGACATT against Prmt7, the z-score was inactive: -1.13.
Next, GGACCCUGAAGGAGCUGAATT against Per2: inactive: -0.409.
Consider GGAUCAUUUCUGGUGAUAATT against Map3k8, for which the z-score is inactive: -0.46.
Next, GCAAUAUGUAUGUUAGUCUTT against Olfr1241: inactive: -1.67; GCCUAGACAAUGGUGACCUTT against Nsfl1c: inactive: -0.772.
As for GCAACGUGUAUUUAAAGACTT against Nrd1, the z-score was inactive: 1.16.
For GGGCUUUAAUUCACAGAGCTT against Ticam2 the value was inactive: -1.23.
For GGCUGAGUUAUUUGUGACATT against Syt13 the value was inactive: -1.41; for GGACAUGACAUUUUUACGCTT against Cyp4f16, inactive: -1.26.
For GGGAAUCUGGAAGACACCATT against Hap1 the value was inactive: -0.717; for GGUGGACAAGGAGAGGACUTT against H2-Q1, inactive: 0.109; for GGAGCAGGAGAAAAUUUUGTT against Olfr437, inactive: -0.0124.
For CCUGAGGUGUUUUACAUAUTT against Med20, the z-score is inactive: 0.085.
Take GGAUGAUUGAGAUAGCGAATT against Polr1e: the z-score was inactive: 0.608.
Next, CCUUGUGAAUACCCUAAUUTT against Mrpl43: inactive: 0.123; GGAUGAACUGACUAAAAUATT against Fmn1: inactive: 1.24; GGACCAUCGAAGAUGACUUTT against Pus1: inactive: -0.678.
For GGUGAUGUUUUAUGGCAGGTT against Olfr1335 the value was inactive: 0.329.
For GGACGUGCUCCUUAAACUCTT against Snx8 the value was inactive: 1.16; for GCUGAGAAUCGUUUAAAUGTT against Ugt2a3, inactive: 0.00662.
With GGCGAAAUCUGCUAGAGUATT against Tppp3, the z-score was active: 2.3.
Next, GCGAUUCAAACUUAUUCGATT against Pcdhb15: inactive: 0.565.
Next, GGAUUCAAAGUACCAAGUGTT against Cfap43: inactive: 1.21.
As to GCAAAUGCACACUCUAGGATT against Ptprn2, the z-score is inactive: -0.0741.
For GGAAAUAAAGUCCAUAGAATT against B3gnt3 the value was inactive: 0.00261.
For GGAAUUCAGCAGUCAACUGTT against Krt15 the value was inactive: -0.629; for GCAUGUAGACUACAACGUGTT against Myoz1, inactive: -1.27; for GGACUUAUUUCUUUAAGGATT against Mmp17, inactive: -0.567.
For GCUUAAGCCGGGUAAUAUCTT against Ccl6 the value was inactive: 1.41; for GCAGUACCUGUUCAGUUCGTT against Slc26a4, inactive: -0.586; for GGAGAAAUAUGUAUGUACATT against Ece2, active: 2.01.
For the sequence GGCAACUUAGGAGUUAGACTT against Pgam5, the z-score was inactive: 0.533.
Next, CCUGAGAUUGGGAAAUUCUTT against Engase: active: 2.02; GGCCAACUCUAUUUUGAAGTT against Lrp2bp: inactive: 0.362; GGUUUGGUGUCAGGUGACATT against Olfr1181: active: -2.05.
For GGCUUAAGGCUAAUGGUCUTT against Fxyd5 the value was inactive: -0.778.
As to GGCAUAUAUACAUGCCUGCTT against Vmn1r215, the z-score is inactive: 0.833.
Next, CCCUAUACAGCGUACCCAATT against Eya2: inactive: -0.754.
Next, GGUUGGUUUGGAGAAGGCATT against Krt35: active: 2.91; GGACAACCUGUUGACCUAGTT against Uba5: inactive: -1.97.
For GGAGGCAAAAUCUUUUGUATT against Kcnk10 the value was inactive: -1.27; for GGUGUGUGAGAUUAAAAGCTT against Ces2a, inactive: -0.485; for CGCCCGAAGCAAUAAAGAGTT against Rpl28, inactive: 0.121.
For the sequence GCCGAACAUACUGAACUGCTT against B2m, the z-score is inactive: 0.622.
For GGAAACUGGACAAGUCUUCTT against Mpnd the value was inactive: -0.392; for GGAGAACAAACUGAGGCACTT against Tspo2, inactive: -1.89; for CGCAGAAAGAGCAUCAGAUTT against Atg9a, active: -2.42.
On to GGAUGAGGAGGAUACAAAGTT against Eif3c, for which the z-score was inactive: 0.228.

The values are drawn from PubChem BioAssay AID1508600 (Functional Genomics Laboratory (NCATS/FGL), 2020).
